Experimental data from article PMC10163288.
This is one part of the list.

B1: il2ra_site2_3nfp_normal_mot_HHH_b2_04451_000000238_0001_21_37_H_._HHH_b2_04195_af2_0001_0000100003_0000001_0 (protein)
chain: SSSSSEEERVRELLEQAEELLERGDPAEALRLLAEATEIAARLNNEELARLILELFEKVQKSSSS
B2: il2ra_site1_2b5i_normal_mot_ems_3hM_3687_af2_000000248_0001_45_64_H_._HHH_b2_05474_af2_0001_0000100001_0000001_0_af2pred_dldesign_0_af2pred (protein)
chain: SSSSSEAERLVAEATAEATRLKAEGKRLEALKVLEAAYKELAALDDDEAMARLEEKAKELLSSSS
B3: il2ra_site2_2erj_sap_22_mot_HHH_b2_01204_af2_000000056_0001_19_34_H_._HHH_b2_01084_af2_0001_0000300020_0000001_0_0001_af2pred_0001_af2pred (protein)
chain: SSSSSEELEELLERLREVDELARNGNPEEAQRLLEEALKELEEEGDRAAARLLRALAKLLSSSSS
B4: il2ra_site1_1z92_sap_30_mot_HHH_b1_02756_000000071_0001_20_37_H_._HHH_b1_08486_af2_0001_0000300012_0000001_0_0001_af2pred_0001_af2pred (protein)
chain: SSSSSLELIQAALEIVLELAEELGLSEEDAHRLAELAAKLAARGVSEEEIREILEEEAEQLSSSS
B5: il2ra_site2_3nfp_sap_20_mot_HHH_b1_04781_af2_000000057_0001_1_18_H_._HHH_b2_05984_0001_0000400021_0000001_0_0001 (protein)
chain: SSSSDDEVAEAAVEDARILAERNGNEELLEELERALEEARKEGDPKLFIELYEIIREILETSSSS
B6: il2ra_site1_1z92_sap_19_mot_HHH_b1_05862_af2_000000270_0001_22_38_H_._HHH_b1_03912_0001_0000200008_0000001_0_0001_af2pred_0001_af2pred (protein)
chain: SRLEEQVRRLLEIAGDPEQAVKLVERFAKRDLELGDPESAQEVLEVAVEILGDPRLEELLEEIRK
B7: il2ra_site2_2erj_normal_mot_HHH_b1_02520_af2_000000126_0001_18_35_H_._HHH_b1_04609_af2_0001_0000200003_0000001_0 (protein)
chain: SSSSDEEARELAKELEEAVERNDQHLVAELLVELWKAVEKYDDPELFEILVKIVRELDELSSSSS
B8: il2ra_site1_2b5i_normal_mot_f5ff40796168375b462bec8614a1db4a_0001_1_000000138_0001_53_65_H_._HHH_b1_01434_0001_0000200021_0000001_0_af2pred_dldesign_0_af2pred (protein)
chain: SSSSSDKRELLAELVAEAEALKKAGKKEEAYKLLRLARRLAKKAGDEETLAEIEELLKKLSSSSS
B9: il2ra_site2_3nfp_sap_18_mot_11b3ddc2b075f9cf8bd0803d3c309881_0001_1_000000111_0001_16_31_H_._HHH_b2_07906_0001_0000100006_0000001_0_0001 (protein)
chain: SSSSDEEVEELLEEAQRAAEEGDPEKARELVRRASQLAWELNDPELFFKVAELLYRIVQLKSSSS
B10: il2ra_site2_3nfp_normal_mot_HHH_b1_02676_000000052_0001_38_56_H_._HHH_b2_04155_0001_0000100010_0000001_0 (protein)
chain: SSSSDEEQLIEALVRSAKYLAKRVEDPEEREELERLAEELEREGDPRLLAELYELVARIYLSSSS
B11: il2ra_site2_3nfp_sap_21_mot_HHH_b1_04032_000000208_0001_43_56_H_._4e434c304959112f243d813f61b0e3cb_0001_af2_0001_0000400018_0000001_0_0001 (protein)
chain: DSSELLMEAARRDPRVYELILLLYELADNNDPEKVKEVEEELEELLKELGIPPEQVERILRLARQ
B12: il2ra_site2_3nfp_sap_18_mot_HHH_b1_06174_af2_000000017_0001_40_57_H_._3020bb65e3c0c4c1750efda2a61ed53f_0001_1_0001_0000300033_0000001_0_0001_af2pred_0001_af2pre … (protein)
chain: SSSSSDELEEEVERLLEEAKRIPDPEERFFVLADAFFLVAHSDNEELFELVRRVSQELQSSSSSS
B13: il2ra_site1_3nfp_normal_mot_HHH_b1_07180_af2_000000260_0001_1_19_H_._HHH_b1_05632_af2_0001_0000100009_0000001_0 (protein)
chain: SSSDLLEEVLRLAEEALRLAWEGDREEAEELVREAIKLAEEANDENSRRFLERLLRQIEQFSSSS
B14: il2ra_site1_1z92_sap_26_mot_8b466c8ab6a4ea9d290724e70e8647ea_0001_000000119_0001_54_65_H_._2874ac36c98298a0dc4d99a960bb3065_0001_af2_0001_0000400046_0000001_0_0 … (protein)
chain: SSSSSTEKQLEYLEEQARRKYERGDPEAAERFIKHAIKLAEESNDEEVRERLEKLEEELRSSSSS
B15: il2ra_site1_2b5i_normal_mot_HHH_b1_00095_000000044_0001_1_14_H_._HHH_b1_06770_af2_0001_0000400056_0000001_0_af2pred_dldesign_0_af2pred (protein)
chain: SSSSSDREAEAEKKIAEAKALKEAGKKKEALELLDELHKELAALGDEEREARVEELAAEISSSSS
B16: il2ra_site2_2erj_sap_25_mot_HHH_b1_06157_000000296_0001_22_38_H_._HHH_b1_06233_0001_0000500029_0000001_0_0001 (protein)
chain: SSSDWLHRLYELANELMRAVAEGDEELFEELLEEARELAERAQTDAVEEFLEALERQFKDHSSSS
B17: il2ra_site1_3nfp_sap_26_mot_HHH_b1_02234_af2_000000023_0001_1_14_H_._HHH_b1_00201_0001_0000200013_0000001_0_0001 (protein)
chain: NQEEIVRRLIEQFAENAGVPHVEVHVENGTFTVTVEGDDEAAEKVLETAREAAERFGIPIHVETE
B18: il2ra_site1_2b5i_normal_mot_HHH_b2_04910_000000118_0001_1_19_H_._HHH_b1_07445_0001_0000100004_0000001_0_af2pred_dldesign_0_af2pred (protein)
chain: SSSSSKGKELRELVKKADKLFQEGKPEEAKKLLEEALELAKELGSTLWVKYLESMLKQLESSSSS
B19: il2ra_site2_2erj_sap_17_mot_HHH_b2_05264_af2_000000057_0001_44_57_H_._HHH_b2_06405_0001_0000200023_0000001_0_0001 (protein)
chain: SSSSEEERIEELYELIEELLKRGDVREVNKVLTEILRLVEEIGDPEVHKLAWEALRLSVERHSSS

Target: il2ra, P01589
Experiment: yeast display titration

Apparent Kd, inactive:
B1 no binding seen
B2 no binding seen
B3 no binding seen
B4 no binding seen
B5 no binding seen
B6 no binding seen
B7 no binding seen
B8 no binding seen
B9 no binding seen
B10 no binding seen
B11 no binding seen
B12 no binding seen
B13 no binding seen
B14 no binding seen
B15 no binding seen
B16 no binding seen
B17 no binding seen
B18 no binding seen
B19 no binding seen

Pulled one by one from the entries so far, 2 records:
Apparent Kd, inactive:
B15 no binding seen
B14 no binding seen
